The supplement of paper PMC12067093, “Discovery and optimisation of a covalent ligand for TRIM25 and its application to targeted protein ubiquitination” (Chemical Science, 2025)
The other results are listed elsewhere or left out.

Amino acid sequences for entries named in this document (tags omitted). A change or cut given only in a name is not applied to a line headed by its entry.
UniProt O95757: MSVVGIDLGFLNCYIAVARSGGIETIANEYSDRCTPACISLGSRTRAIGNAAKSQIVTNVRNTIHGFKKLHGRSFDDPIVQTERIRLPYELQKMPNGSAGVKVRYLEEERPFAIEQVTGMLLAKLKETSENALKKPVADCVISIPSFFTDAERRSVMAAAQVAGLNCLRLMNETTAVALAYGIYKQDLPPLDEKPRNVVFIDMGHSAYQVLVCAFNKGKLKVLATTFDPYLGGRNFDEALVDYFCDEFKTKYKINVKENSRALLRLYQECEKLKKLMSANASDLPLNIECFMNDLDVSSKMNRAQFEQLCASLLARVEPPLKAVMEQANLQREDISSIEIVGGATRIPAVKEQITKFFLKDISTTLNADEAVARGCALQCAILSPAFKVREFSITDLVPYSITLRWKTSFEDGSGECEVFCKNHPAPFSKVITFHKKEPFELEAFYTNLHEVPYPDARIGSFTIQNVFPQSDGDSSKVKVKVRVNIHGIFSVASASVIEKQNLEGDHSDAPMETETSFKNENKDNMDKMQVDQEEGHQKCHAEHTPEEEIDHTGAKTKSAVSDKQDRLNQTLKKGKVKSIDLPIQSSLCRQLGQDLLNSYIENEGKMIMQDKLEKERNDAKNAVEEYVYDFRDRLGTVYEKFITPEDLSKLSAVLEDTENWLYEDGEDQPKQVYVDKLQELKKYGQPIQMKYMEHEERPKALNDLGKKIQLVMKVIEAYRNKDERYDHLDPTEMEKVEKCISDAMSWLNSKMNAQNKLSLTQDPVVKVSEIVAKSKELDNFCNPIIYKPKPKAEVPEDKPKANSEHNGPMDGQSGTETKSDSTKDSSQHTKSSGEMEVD
UniProt P08238, whole entry, looked up: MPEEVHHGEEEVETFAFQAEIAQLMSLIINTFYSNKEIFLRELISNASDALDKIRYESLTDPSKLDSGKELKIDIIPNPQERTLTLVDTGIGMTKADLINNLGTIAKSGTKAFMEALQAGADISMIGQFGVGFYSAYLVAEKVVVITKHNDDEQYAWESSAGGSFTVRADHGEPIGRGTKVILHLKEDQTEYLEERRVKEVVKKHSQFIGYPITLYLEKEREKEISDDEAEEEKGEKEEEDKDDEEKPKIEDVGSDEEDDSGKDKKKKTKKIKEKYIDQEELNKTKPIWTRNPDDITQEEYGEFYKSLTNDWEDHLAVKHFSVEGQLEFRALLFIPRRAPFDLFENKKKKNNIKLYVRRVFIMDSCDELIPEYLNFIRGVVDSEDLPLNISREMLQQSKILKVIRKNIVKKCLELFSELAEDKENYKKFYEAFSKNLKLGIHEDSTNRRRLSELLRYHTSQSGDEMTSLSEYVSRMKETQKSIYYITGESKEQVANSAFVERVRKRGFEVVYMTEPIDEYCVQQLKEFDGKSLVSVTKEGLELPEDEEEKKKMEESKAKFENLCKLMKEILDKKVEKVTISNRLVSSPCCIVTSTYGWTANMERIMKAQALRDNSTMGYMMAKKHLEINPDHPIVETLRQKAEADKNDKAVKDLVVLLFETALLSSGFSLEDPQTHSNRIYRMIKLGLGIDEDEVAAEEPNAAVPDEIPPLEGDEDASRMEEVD
UniProt Q92598: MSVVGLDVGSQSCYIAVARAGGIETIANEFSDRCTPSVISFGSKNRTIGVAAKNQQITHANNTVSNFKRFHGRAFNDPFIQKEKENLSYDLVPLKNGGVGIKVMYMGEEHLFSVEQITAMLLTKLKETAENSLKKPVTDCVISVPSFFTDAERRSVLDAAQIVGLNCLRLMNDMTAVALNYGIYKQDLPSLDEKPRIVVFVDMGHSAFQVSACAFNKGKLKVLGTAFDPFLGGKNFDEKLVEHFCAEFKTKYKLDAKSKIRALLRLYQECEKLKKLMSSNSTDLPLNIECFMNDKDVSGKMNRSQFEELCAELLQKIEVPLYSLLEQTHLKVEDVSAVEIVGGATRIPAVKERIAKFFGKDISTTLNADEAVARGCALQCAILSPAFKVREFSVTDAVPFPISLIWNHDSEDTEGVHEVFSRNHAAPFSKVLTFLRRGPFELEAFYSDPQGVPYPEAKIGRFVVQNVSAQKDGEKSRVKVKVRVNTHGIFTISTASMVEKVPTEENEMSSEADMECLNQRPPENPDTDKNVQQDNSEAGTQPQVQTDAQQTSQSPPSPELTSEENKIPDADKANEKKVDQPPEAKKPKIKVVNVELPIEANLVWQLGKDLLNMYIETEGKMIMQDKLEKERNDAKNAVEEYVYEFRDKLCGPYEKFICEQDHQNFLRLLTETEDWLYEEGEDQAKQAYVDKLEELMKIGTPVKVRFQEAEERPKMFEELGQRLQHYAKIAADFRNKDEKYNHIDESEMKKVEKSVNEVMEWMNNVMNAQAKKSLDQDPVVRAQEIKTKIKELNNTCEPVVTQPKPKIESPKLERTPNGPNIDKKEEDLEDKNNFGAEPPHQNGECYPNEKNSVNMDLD
UniProt P34932: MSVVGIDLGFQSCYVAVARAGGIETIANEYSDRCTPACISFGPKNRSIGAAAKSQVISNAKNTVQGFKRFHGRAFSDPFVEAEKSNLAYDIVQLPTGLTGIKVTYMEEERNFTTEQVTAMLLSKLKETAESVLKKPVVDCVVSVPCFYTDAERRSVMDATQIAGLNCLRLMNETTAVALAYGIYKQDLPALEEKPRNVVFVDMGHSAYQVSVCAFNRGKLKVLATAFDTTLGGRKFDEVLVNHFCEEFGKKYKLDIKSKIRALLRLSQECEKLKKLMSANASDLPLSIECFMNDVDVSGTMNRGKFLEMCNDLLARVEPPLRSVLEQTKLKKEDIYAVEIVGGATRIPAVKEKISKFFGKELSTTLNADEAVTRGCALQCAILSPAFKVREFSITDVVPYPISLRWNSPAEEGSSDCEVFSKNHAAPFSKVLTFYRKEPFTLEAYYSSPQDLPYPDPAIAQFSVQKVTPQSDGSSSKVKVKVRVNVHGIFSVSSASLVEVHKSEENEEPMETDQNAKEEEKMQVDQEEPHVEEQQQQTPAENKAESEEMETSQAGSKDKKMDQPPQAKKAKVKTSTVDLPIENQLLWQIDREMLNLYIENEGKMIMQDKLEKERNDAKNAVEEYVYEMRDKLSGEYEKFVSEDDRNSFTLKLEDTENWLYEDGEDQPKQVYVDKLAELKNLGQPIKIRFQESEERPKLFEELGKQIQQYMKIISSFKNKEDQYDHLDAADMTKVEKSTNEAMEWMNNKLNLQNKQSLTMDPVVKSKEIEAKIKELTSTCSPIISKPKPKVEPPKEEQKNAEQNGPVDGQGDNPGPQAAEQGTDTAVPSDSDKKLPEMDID
UniProt Q8IX15: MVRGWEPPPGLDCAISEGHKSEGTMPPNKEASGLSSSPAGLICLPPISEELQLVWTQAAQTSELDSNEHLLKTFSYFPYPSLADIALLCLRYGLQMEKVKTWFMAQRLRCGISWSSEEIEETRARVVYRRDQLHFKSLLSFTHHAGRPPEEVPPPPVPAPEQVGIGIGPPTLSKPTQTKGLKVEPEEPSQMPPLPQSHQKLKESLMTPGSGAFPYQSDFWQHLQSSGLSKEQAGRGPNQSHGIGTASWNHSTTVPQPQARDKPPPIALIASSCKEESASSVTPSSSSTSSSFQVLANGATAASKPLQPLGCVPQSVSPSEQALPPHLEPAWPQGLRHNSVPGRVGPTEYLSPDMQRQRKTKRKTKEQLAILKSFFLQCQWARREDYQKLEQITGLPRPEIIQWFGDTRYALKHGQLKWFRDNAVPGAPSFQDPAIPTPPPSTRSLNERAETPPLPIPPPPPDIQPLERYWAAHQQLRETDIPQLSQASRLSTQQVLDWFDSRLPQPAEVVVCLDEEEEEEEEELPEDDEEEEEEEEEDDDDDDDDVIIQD
UniProt P54652, whole entry, looked up: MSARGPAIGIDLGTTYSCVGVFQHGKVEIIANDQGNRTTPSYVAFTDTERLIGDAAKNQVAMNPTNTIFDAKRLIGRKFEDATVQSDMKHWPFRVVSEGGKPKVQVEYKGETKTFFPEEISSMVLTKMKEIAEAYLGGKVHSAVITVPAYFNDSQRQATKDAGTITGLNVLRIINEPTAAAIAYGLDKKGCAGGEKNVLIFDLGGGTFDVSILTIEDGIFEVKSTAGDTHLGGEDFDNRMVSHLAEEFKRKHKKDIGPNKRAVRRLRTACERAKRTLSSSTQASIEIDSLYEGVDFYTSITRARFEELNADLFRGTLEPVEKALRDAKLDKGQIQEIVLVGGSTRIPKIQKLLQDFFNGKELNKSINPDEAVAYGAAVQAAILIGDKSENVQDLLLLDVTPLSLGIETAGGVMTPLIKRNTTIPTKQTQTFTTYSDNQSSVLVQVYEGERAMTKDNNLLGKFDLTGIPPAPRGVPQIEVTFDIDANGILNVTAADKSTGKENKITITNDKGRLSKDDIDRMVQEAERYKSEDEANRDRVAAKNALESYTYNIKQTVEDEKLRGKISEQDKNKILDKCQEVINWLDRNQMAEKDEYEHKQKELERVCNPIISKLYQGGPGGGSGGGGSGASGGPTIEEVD
UniProt Q9BUJ2: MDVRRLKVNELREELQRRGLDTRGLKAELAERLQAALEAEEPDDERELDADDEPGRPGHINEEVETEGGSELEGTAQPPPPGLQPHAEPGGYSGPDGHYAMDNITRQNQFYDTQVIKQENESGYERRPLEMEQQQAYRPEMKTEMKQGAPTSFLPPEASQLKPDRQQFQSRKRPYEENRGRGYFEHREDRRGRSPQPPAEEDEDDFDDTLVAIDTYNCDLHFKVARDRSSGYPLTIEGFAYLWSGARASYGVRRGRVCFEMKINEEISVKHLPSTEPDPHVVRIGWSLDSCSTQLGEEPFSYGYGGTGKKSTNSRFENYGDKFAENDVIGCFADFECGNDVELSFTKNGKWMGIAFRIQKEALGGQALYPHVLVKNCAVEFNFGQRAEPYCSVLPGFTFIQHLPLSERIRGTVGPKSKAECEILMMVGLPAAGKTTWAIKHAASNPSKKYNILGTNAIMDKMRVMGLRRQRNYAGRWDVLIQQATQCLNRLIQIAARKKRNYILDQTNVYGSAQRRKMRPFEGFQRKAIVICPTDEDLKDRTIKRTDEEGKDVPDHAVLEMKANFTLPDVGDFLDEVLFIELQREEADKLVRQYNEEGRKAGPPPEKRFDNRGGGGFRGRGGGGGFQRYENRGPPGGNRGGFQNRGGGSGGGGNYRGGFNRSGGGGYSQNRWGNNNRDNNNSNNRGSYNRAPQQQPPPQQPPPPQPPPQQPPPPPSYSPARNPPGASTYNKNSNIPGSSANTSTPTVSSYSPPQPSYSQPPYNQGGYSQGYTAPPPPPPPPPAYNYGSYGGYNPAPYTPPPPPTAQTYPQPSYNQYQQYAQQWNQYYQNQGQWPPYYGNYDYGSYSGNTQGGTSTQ
UniProt P52272: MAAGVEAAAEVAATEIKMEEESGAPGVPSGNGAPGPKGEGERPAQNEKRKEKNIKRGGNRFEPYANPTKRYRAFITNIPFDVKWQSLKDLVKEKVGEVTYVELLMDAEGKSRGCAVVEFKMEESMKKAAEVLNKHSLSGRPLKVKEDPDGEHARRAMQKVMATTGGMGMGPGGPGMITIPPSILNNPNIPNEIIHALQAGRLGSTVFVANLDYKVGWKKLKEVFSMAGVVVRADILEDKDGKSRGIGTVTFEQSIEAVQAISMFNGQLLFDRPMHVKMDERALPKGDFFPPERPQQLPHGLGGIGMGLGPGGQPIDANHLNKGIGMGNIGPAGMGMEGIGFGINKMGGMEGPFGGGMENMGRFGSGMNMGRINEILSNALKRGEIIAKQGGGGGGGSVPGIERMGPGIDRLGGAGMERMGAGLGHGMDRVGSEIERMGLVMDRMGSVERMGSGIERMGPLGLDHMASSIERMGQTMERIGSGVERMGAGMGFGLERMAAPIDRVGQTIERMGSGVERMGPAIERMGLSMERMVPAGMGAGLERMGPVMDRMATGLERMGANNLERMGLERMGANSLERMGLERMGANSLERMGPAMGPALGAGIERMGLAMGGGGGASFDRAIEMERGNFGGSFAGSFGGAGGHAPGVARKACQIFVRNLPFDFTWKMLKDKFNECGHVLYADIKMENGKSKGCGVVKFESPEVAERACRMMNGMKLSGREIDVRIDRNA
UniProt Q0VDF9: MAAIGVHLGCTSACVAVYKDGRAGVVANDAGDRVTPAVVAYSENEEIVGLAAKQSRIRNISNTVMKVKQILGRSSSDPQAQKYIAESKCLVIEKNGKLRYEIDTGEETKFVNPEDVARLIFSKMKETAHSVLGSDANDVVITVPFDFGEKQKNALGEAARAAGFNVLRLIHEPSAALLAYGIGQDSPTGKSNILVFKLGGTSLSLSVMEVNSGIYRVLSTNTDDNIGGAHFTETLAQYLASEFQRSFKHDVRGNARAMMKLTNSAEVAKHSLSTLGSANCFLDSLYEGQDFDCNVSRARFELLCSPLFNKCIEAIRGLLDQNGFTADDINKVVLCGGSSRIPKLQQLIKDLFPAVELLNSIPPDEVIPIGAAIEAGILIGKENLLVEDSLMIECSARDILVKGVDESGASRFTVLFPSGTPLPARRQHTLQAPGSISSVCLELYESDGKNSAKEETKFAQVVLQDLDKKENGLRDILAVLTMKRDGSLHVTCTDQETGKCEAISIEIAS

compound: Cc1cc(ccc1-c1ccccc1)C(=O)N1CCCN(CC1)C(=O)CCl [compound 10]; experiment: probe-labelled cysteine peptide fold change vs DMSO (competition) (log2 fold change); higher = less target engagement (more negative = stronger competition); conditions: 50 µM; THP-1; incubation time: 4 h
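Also: competitive profiling in live THP-1 cells: cysteine peptides tagged with an iodoacetamide desthiobiotin (IA-DTB) probe, intensity after compound treatment relative to DMSO-treated cells.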

Row | Target | probe-labelled cysteine peptide fold change
1 | HNRNPA1_P09651_43_SHFEQWGTLTDCVVMR (UniProt P09651) | 0.121
2 | HSPBP1_Q9NZL4_348_LLQTCFSSPADDSMDR (UniProt Q9NZL4) | -0.0872
3 | HUWE1_Q7Z6Z7_1832_HIIEDPCTLR (UniProt Q7Z6Z7) | -0.295
4 | HMOX2_P30519_127_DMEYFFGENWEEQVQCPK (UniProt P30519) | 0.237
5 | HNRNPDL_O14979_277_RGFCFITYTDEEPVKK (UniProt O14979) | -0.27
6 | HSPA4L_O95757_540_CHAEHTPEEEIDHTGAK (UniProt O95757) | -0.483
7 | HNRNPA0_Q13151_49_CFGFVTYSNVEEADAAMAASPHAVDGNTVELKR (UniProt Q13151) | -0.355
8 | HSP90AB1_P08238_412_CLELFSELAEDK (UniProt P08238) | 0.151
9 | HSPH1_Q92598_796_ELNNTCEPVVTQPKPK (UniProt Q92598) | -0.8
10 | HSPA4_P34932_213_NVVFVDMGHSAYQVSVCAFNR (UniProt P34932) | 0.0938
11 | HSD17B4_P51659_277_KICDFENASKPQSIQESTGSIIEVLSK (UniProt P51659) | -0.232
12 | HOMEZ_Q8IX15_273_DKPPPIALIASSCK (UniProt Q8IX15) | 0.067
13 | HSPH1_Q92598_167_SVLDAAQIVGLNCLR (UniProt Q92598) | 0.284
14 | HSPH1_Q92598_796_ELNNTCEPVVTQPK (UniProt Q92598) | 0.0465
15 | HSPA4_P34932_270_LSQECEK (UniProt P34932) | -0.0369
16 | HNRNPU_Q00839_389+391_TCNCETEDYGEK (UniProt Q00839) | -0.129
17 | HNRNPF_P52597_22+34_GLPWSCSVEDVQNFLSDCTIHDGAAGVHFIYTR (UniProt P52597) | 0.0921
18 | HSPA2_P54652_18_GPAIGIDLGTTYSCVGVFQHGK (UniProt P54652) | 0.129

Row | Target | probe-labelled cysteine peptide fold change
19 | HSPA4L_O95757_34+38_CTPACISLGSR (UniProt O95757) | -0.086
20 | HSPH1_Q92598_310_SQFEELCAELLQK (UniProt Q92598) | 0.0349
21 | HNRNPUL1_Q9BUJ2_421_SKAECEILMMVGLPAAGK (UniProt Q9BUJ2) | -0.134
22 | HNRNPH2_P55795_22_GLPWSCSADEVMR (UniProt P55795) | 0.249
23 | HTT_P42858_777_GATAILCGTLICSILSR (UniProt P42858) | -0.284
24 | HSPA4_P34932_146_KPVVDCVVSVPCFYTDAER (UniProt P34932) | 0.112
25 | HNRNPUL1_Q9BUJ2_377_NCAVEFNFGQR (UniProt Q9BUJ2) | 0.2
26 | HNRNPM_P52272_114_GCAVVEFK (UniProt P52272) | 0.0923
27 | HNRNPL_P14866_521_IQHPSNVLHFFNAPLEVTEENFFEICDELGVK (UniProt P14866) | 0.207
28 | HSPA4L_O95757_417+421_TSFEDGSGECEVFCK (UniProt O95757) | -0.39
29 | HSPA4_P34932_290_KLMSANASDLPLSIECFMNDVDVSGTMNR (UniProt P34932) | -0.566
30 | HPRT1_P00492_23_SPGVVISDDEPGYDLDLFCIPNHYAEDLER (UniProt P00492) | -0.173
31 | HNRNPA2B1_P22626_50_LTDCVVMRDPASK (UniProt P22626) | 0.169
32 | HSPA14_Q0VDF9_492_DGSLHVTCTDQETGK (UniProt Q0VDF9) | -0.00701
33 | HSPA4_P34932_140+146_KPVVDCVVSVPCFYTDAER (UniProt P34932) | 0.118
34 | HSPA9_P38646_366_TIAPCQK (UniProt P38646) | 0.0446
35 | HNRNPLL_Q8WVV9_84_GLCESVVEADLVEALEK (UniProt Q8WVV9) | -0.18
36 | HSP90AB1_P08238_366_VFIMDSCDELIPEYLNFIR (UniProt P08238) | -0.0474
